Experimental data reported in patent publication US20200270332A1.
These are yes or no findings as the source states them, for the method shown. Some results given as binding are weak or reduced against the parent protein; the word gives no strength.

The chains behind the UniProt entries cited, without tags or fusion partners. Where a name states a change or a piece, a line headed by the entry shows the natural chain unless it says otherwise. A line that says so, or that is headed by a name, gives the form on record, which may keep a tag or linker. Residues count along the entry.
human fibronectin (P02751, form named): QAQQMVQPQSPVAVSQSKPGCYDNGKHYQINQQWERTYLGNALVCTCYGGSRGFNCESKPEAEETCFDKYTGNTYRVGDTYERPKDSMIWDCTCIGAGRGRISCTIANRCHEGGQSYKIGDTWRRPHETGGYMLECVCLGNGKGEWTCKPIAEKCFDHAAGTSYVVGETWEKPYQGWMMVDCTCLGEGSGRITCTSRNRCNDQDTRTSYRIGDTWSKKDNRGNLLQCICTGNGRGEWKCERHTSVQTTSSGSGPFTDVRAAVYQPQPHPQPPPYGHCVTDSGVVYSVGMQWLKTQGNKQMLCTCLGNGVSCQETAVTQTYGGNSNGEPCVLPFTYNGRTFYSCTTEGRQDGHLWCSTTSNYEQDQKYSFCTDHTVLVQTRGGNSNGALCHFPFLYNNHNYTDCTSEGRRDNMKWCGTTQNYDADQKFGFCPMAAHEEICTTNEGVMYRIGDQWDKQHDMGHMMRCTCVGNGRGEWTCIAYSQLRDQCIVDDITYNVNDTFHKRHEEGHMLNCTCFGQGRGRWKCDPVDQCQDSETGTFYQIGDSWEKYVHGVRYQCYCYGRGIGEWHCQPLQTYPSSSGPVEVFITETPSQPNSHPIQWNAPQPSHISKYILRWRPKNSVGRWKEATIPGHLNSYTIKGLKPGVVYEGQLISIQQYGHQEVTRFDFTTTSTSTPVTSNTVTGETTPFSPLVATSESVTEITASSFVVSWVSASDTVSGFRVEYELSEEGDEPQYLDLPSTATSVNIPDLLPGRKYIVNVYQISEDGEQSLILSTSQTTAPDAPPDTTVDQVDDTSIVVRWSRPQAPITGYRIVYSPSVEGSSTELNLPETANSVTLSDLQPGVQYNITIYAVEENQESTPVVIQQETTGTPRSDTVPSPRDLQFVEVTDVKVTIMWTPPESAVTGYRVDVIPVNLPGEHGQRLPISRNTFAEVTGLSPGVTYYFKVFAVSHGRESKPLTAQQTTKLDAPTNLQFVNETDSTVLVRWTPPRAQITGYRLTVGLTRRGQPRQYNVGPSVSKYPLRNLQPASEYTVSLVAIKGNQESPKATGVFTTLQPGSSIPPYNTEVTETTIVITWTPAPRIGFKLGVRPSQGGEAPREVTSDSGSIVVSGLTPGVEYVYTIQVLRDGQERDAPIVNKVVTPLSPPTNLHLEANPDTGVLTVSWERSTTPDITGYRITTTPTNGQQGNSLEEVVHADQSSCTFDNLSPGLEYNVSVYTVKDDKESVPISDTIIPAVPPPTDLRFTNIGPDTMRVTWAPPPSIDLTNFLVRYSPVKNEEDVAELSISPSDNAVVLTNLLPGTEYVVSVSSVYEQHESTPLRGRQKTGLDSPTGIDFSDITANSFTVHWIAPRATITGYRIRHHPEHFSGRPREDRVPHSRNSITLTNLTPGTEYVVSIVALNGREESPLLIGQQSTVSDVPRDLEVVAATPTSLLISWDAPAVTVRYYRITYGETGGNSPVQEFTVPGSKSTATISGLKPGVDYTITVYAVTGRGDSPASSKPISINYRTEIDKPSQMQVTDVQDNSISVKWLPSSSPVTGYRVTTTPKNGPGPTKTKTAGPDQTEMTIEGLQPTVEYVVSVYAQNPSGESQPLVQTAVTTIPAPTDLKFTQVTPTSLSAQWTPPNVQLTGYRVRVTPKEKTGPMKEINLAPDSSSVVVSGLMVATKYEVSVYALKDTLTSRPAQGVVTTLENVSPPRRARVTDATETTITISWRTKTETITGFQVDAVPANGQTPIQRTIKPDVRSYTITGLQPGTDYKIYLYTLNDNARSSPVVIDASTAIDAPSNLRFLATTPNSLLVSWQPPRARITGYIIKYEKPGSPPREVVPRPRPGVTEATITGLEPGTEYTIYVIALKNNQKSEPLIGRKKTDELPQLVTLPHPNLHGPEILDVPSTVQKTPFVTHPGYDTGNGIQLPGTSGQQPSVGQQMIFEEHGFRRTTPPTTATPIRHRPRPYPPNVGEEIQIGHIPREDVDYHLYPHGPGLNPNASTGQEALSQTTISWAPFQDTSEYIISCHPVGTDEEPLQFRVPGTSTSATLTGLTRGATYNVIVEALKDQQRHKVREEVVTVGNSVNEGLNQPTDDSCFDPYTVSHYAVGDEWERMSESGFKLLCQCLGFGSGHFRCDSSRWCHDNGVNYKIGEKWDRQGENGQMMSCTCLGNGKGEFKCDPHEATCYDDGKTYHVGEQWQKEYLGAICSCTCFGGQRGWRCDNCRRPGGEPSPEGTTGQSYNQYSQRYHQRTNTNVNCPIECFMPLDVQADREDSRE
UniProt P08253, residues 30-660: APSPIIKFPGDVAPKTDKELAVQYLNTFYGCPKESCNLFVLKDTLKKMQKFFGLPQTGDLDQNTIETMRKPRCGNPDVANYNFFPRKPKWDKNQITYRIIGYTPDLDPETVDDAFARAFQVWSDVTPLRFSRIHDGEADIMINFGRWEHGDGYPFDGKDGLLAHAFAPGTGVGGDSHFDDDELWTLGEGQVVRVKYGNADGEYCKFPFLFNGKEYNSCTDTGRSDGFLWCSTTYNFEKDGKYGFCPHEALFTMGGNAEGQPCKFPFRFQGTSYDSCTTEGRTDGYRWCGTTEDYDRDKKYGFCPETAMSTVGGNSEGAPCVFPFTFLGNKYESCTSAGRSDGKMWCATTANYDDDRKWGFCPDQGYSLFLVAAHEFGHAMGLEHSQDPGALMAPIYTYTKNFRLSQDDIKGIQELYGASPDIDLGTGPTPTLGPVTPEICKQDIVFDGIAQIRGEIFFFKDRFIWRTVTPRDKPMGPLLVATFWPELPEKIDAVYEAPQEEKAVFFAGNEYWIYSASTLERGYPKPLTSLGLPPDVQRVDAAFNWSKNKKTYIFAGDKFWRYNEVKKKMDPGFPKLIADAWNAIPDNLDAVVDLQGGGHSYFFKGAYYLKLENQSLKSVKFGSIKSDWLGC
UniProt P14780, residues 20-707: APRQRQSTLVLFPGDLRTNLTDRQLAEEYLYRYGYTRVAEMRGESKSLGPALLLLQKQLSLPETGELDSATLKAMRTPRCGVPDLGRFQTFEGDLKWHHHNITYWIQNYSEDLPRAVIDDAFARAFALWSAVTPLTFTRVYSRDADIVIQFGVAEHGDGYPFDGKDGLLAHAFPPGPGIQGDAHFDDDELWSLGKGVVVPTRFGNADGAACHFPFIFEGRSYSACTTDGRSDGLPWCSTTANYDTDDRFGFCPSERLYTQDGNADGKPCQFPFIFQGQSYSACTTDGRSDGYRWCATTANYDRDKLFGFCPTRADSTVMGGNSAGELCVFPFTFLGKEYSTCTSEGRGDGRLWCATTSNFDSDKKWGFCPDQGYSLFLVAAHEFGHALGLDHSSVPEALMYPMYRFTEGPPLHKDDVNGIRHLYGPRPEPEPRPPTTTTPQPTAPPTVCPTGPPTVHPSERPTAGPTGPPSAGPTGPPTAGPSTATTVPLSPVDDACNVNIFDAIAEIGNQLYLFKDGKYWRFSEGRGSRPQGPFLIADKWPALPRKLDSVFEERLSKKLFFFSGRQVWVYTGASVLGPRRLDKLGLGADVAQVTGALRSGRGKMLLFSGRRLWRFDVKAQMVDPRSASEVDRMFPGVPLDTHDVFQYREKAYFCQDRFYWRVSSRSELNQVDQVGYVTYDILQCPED
UniProt P39060: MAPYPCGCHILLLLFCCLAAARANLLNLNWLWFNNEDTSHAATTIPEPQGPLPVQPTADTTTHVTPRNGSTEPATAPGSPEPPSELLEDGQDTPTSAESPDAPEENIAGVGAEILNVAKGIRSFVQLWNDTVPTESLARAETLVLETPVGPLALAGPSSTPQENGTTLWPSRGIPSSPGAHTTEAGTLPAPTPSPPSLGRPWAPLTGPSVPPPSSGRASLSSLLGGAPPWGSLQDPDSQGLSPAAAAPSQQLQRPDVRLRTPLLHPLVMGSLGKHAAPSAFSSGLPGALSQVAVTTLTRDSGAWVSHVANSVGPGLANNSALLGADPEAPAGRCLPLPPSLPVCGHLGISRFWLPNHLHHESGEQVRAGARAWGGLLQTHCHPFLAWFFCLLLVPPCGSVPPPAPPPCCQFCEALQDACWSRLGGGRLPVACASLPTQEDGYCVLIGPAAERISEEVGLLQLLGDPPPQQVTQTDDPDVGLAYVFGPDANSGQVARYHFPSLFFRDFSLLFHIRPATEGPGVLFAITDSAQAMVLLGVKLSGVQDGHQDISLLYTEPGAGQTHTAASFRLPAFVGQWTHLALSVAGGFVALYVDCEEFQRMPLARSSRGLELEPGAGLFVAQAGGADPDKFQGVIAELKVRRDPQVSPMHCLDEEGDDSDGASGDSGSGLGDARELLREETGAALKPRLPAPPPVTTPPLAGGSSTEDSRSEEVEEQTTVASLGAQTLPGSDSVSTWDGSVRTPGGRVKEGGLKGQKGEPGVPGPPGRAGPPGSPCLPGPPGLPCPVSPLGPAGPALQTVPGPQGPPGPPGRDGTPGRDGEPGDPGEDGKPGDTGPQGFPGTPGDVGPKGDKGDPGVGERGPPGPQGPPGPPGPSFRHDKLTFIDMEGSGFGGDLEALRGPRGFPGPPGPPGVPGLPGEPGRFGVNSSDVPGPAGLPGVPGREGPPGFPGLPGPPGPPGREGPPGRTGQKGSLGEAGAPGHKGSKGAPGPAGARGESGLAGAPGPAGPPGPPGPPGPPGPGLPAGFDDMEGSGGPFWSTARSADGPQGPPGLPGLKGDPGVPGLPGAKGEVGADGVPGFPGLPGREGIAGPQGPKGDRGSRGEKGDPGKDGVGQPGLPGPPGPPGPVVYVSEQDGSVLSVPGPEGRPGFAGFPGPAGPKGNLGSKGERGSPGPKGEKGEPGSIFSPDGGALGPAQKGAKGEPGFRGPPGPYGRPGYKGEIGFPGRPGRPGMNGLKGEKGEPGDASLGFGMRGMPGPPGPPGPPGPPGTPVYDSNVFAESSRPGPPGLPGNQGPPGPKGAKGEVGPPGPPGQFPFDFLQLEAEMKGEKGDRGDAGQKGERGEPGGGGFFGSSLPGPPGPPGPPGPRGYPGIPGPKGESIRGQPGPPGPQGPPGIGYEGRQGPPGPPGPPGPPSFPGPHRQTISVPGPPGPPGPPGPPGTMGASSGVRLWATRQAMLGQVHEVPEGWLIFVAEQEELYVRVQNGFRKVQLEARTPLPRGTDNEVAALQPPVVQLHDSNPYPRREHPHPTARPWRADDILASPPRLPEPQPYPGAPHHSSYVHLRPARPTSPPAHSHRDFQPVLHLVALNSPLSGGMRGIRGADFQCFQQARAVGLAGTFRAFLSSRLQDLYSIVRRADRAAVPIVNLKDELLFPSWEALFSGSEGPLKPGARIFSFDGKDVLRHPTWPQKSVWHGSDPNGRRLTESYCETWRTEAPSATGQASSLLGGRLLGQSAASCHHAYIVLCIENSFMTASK

Key:
[1] = biological target: human fibronectin (human) (UniProt P02751); test: ELISA, plate coated with fibronectin, anti-endostatin antibody detection
[2] = biological target: recombinant human matrix metalloproteinase-2 (human) (UniProt P08253); test: ELISA, plate coated with MMP-2, anti-endostatin antibody detection
[3] = biological target: recombinant human matrix metalloproteinase-9 (human) (UniProt P14780); test: ELISA, plate coated with human MMP-9, anti-endostatin antibody detection
[4] = biological target: recombinant human matrix metalloproteinase-2 (human) (UniProt P08253); test: ELISA, plate coated with human MMP-2, anti-endostatin antibody detection

Measured: binding

Fc-endostatin (human Fc-endostatin, dimer through the Fc) (from UniProt P39060 1572-1751) (Fc fusion)
binds: all assays above
